From the supplement of paper PMC10338343
± gives the standard deviation. This is a selection; strong and weak results do not stand in their true shares. Many of these values have a large error. This is one part of the list.

What was measured:
[1] = system: MILI (PIWIL2) piRISC loaded with L1MC piRNA (26 nt); experiment: pre-steady-state target cleavage rate (min^-1); higher = faster piRNA-guided slicing of the target; settings: guide: L1MC piRNA 5'p-UAACUAAAUACUAUGCAAGCUGUAGG
In short: (§1)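 At 33 °C in HEPES–potassium acetate buffer, a transcribed, DNA-blocked target RNA library […] was exposed for 0–8 or 0–960 min to 1 nM active affinity-purified piRISC carrying a single synthetic guide, with or without 500 nM GTSF1 partner protein. Uncleaved targets were sequenced and normalised to depth and to weakly complementary targets. With three trials pooled and k3 capped at 0.0001 min^-1, a burst-and-steady-state fit produced the pre-steady-state cleavage rate.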

[2] = system: MIWI (PIWIL1) piRISC loaded with L1MC piRNA (30 nt); experiment: as above; settings: guide: L1MC piRNA 5'p-UAACUAAAUACUAUGCAAGCUGUAGGUCCU
In short: as §1

[3] = system: EfPiwi piRISC loaded with L1MC piRNA (26 nt); experiment: pre-steady-state target cleavage rate (min^-1); guide: L1MC piRNA 5'p-UAACUAAAUACUAUGCAAGCUGUAGG; MIWI and MILI are mouse PIWI proteins and EfPiwi is from a freshwater sponge; tags in brackets are library labels; higher = faster piRNA-guided slicing of the target
In short: as §1

[4] = auxiliary factor: none (no GTSF1)
[5] = auxiliary factor: 500 nM mouse GTSF1
[6] = auxiliary factor: 500 nM Ephydatia muelleri Gtsf1
[7] = auxiliary factor: none (no Gtsf1)

Row | Sequence | pre-steady-state target cleavage rate [1, 4] | pre-steady-state target cleavage rate [2, 5] | pre-steady-state target cleavage rate [2, 4] | pre-steady-state target cleavage rate [3, 6] | pre-steady-state target cleavage rate [3, 7] | pre-steady-state target cleavage rate [1, 5]
1 | UCCUGGAUGUCGAAGCAUAGUAUAAUGUUA | 0.000904 ± 0.0064 | 0.000293 ± 0.024 | 0.000496 ± 0.013 | 0.000354 ± 0.0083 | 0.000238 ± 0.03 | –
2 | UCCUGGAUGUCGUUGCAAAGUUUUUAGUUA | – | 0.000503 ± 0.017 | 0.000702 ± 0.0077 | 0.000244 ± 0.015 | 0.000202 ± 0.043 | 0.002 ± 0.0048
3 | UCCUGGAUGUGCUUGCAUAGAUAUUUAGUUA | – | 0.00145 ± 0.0085 | 0.00159 ± 0.0059 | 0.000379 ± 0.011 | 0.000443 ± 0.018 | 0.00435 ± 0.0045
4 | UCCUGGAUCAGCUUGCAUAGUAUUUUGAUA | 0.00131 ± 0.005 | 0.17 ± 0.032 | 0.0123 ± 0.004 | 0.00716 ± 0.003 | 0.000522 ± 0.018 | –
5 | UCCUGGAUGUCCUUGCUAAGUAUUUAGUUA | 0.00249 ± 0.0031 | 0.00244 ± 0.006 | 0.00117 ± 0.0055 | 0.000334 ± 0.0093 | < 0.0001 | –
6 | UCCUGGAUGUCGUAGCAUAGUAUUUAGUAA | 0.00189 ± 0.0043 | 0.00174 ± 0.0058 | 0.000903 ± 0.0079 | 0.00106 ± 0.0074 | 0.000453 ± 0.014 | –
7 | UCCUGGAUGUCGUUGCAUAGUAUUCAGUUA | 0.00182 ± 0.0044 | 0.00267 ± 0.0047 | 0.00167 ± 0.0051 | 0.000395 ± 0.013 | 0.000194 ± 0.033 | –
8 | UCCUGGAUGUCGUUGCAUAGUGAUUUAGUUA | – | 0.000634 ± 0.016 | 0.00177 ± 0.0062 | 0.0012 ± 0.0085 | 0.000219 ± 0.039 | 0.003 ± 0.0046
9 | UCCUGCUACAGCUUGCAUAGUAUAAUGUAA | 0.000948 ± 0.006 | 0.188 ± 0.038 | 0.00212 ± 0.0031 | 0.00248 ± 0.002 | 0.00034 ± 0.018 | –
10 | UCCUGGAUGUCGUUGCAUAGUAUGUAGUUA | 0.00222 ± 0.0041 | 0.000773 ± 0.01 | 0.00155 ± 0.0046 | 0.000867 ± 0.0085 | 0.000325 ± 0.023 | –
11 | UCCUGGAACACCUUGCAUAGUUUUUAGUUA | 0.00231 ± 0.003 | 0.148 ± 0.023 | 0.0142 ± 0.0044 | 0.0022 ± 0.0033 | 0.000453 ± 0.018 | –
12 | UCCUGCAACAGCUUGCAUAGAAUUUAGUUA | 0.00148 ± 0.0047 | 0.492 ± 0.048 | 0.0261 ± 0.0079 | 0.00434 ± 0.0021 | 0.00143 ± 0.0055 | –
13 | UCCUGCUACAGCUUGCUAUAGUAUUUAGUUA | 0.0011 ± 0.0063 | 0.0317 ± 0.011 | 0.000316 ± 0.013 | 0.0075 ± 0.002 | 0.00221 ± 0.0054 | –
14 | UCCUGGAACAGCUUGGUAAGUAUUUUCAAA | 0.000698 ± 0.0093 | 0.00122 ± 0.01 | 0.00069 ± 0.012 | 0.00119 ± 0.0047 | 0.000528 ± 0.014 | –
15 | UCCUGGAUGAGCAAGCAUAGUAUUUAGAAA | 0.00101 ± 0.007 | 0.00263 ± 0.0056 | 0.0012 ± 0.0064 | 0.00202 ± 0.0024 | 0.000266 ± 0.028 | –
16 | UCCUGGUACAGCUUGCAUAGUUUUAGUUA | 0.00243 ± 0.0033 | 0.00279 ± 0.0062 | 0.000551 ± 0.0055 | 0.00131 ± 0.0052 | 0.000356 ± 0.033 | –
17 | UCCUCCUACAGCUUGCAUAGAAAUUAGUUA | 0.0015 ± 0.003 | 0.169 ± 0.019 | 0.00268 ± 0.0024 | 0.00254 ± 0.0029 | 0.00124 ± 0.0069 | –
18 | UCCUGGAACAGCUUGCAUAAGUAUUUAGUUA | 0.000864 ± 0.0071 | 0.00489 ± 0.0033 | 0.000344 ± 0.0095 | 0.00284 ± 0.0024 | 0.000508 ± 0.014 | –
19 | UCCUGGAUCAGCUACCAUAGUAUUUAGAAA | 0.000648 ± 0.0092 | 0.002 ± 0.0064 | 0.00123 ± 0.0056 | 0.00205 ± 0.0025 | 0.000336 ± 0.023 | –

A second format for some results above:
Row	Sequence	pre-steady-state target cleavage rate [1, 4]	pre-steady-state target cleavage rate [2, 5]	pre-steady-state target cleavage rate [2, 4]	pre-steady-state target cleavage rate [3, 6]	pre-steady-state target cleavage rate [3, 7]	pre-steady-state target cleavage rate [1, 5]
5	UCCUGGAUGUCCUUGCUAAGUAUUUAGUUA	0.00249 ± 0.0031	0.00244 ± 0.006	0.00117 ± 0.0055	0.000334 ± 0.0093	< 0.0001	–
10	UCCUGGAUGUCGUUGCAUAGUAUGUAGUUA	0.00222 ± 0.0041	0.000773 ± 0.01	0.00155 ± 0.0046	0.000867 ± 0.0085	0.000325 ± 0.023	–
